Results are given in words; binding and its absence hold for the method and conditions named. Some results given as binding are weak or reduced against the parent protein; the word gives no strength.
B1: B2 (antibody, V domains shown)
VH: QVQLVQSGAEVKKPGASVKVSCKASGYTFTSYYMHWVRQAPGQGLEWMGIINPSGGSTSYAQKFRGRVTMTRDTSTSTVYMELSSLRSEDTAVYYCARGDYDILTDYYYNMDVWGQGTTVTVSS
VL: DIQMTQSPSAMSASVGDRVTITCRASQGISNYLAWFQQKPGKVPKRLIYAASSLQSGVPSRFSGSGSGTEFTLTISSLQPEDFATYYCLQHNSYPYTFGQGTKLEIK
B2: F9 (antibody, V domains shown)
VH: QVQLVQSGAEVKKPGASVQVSCKASGYTFTSYYMHWVRQAPGQGLEWMGIINPSGGSTSYAQKFQGRVTMTRDTSTSTVYMELSSLRSEDTAVYYCARQGGAQWLVLAFDIWGQGTMVTVSS
VL: EIVLTQSPGTLSLSPGERATLSCRASQSVSSYLAWYQQKPGQPPRLLIYGASSRATGIPDRFSGGGSGTDFTLTISRLEPEDFAVYYCQQYDSSPYTFGQGTKLEIK
B3: G16 (antibody, V domains shown)
VH: QVQLVQSGAEVKKPGASVQVSCKASGYTFTSYYMHWVRQAPGQGLEWMGIINPSGGSTSYAQKFQGRVTMTRDTSTSTVYMELSSLRSEDTAVYYCARQGGAQWLVLAFDIWGQGTMVTVSS
VL: EIVLTQSPGTLSLSPGERATLSCRASQSVSSYLAWYQQKPGQAPRLLIYGASSRATGIPDRFSGGGSGTDFTLTISRLEPEDFAVYYCQQYGSSPYTFGQGTKLEIK
B4: L22 (antibody, V domains shown)
VH: EVQLLESGGGLVQPGGSLRLSCAASGFTFSSYAMGWVRQTPGKGLEWVSTISGRGGDTYYADSVKGRFTISRDNSKNTLYLQMNSLRAEDTAIYYCAKERGLGFDYWGQGTLVTVSS
VL: DIVMTQTPLSLPVTPGEPASISCRSSQSLLDSDDGNTYLDWYLQKPGQSPQLLIYTLSYRASGVPDRFSGSGSGTDFTLKISRVEAEDVGVYYCMQHLEFPLTFGGGTKVEIK
B5: A18 (antibody, V domains shown)
VH: QVTLRESGPALVKSTQTLTLTCTFSGFSLSTSGMCVSWIRQTPGKALEWLALIDWDDNKYYSTSLKTRLIISKDTSKNQVVLTMTNMEPVDTATYYCARIRGYSGSYDAFDIWGQGTMVTVSS
VL: DIVMTQSPLSLPVTPGEPASISCRSSQSLLHSNGYNYLDWYLQKPGQSPHILLYLGSNRAPGVPDRFSGSGSGTDFTLKISRVEAEDVGVYYCMQALQTPFTFGPGTKVDIK
B6: E9 (antibody, V domains shown)
VH: QVQLVQSGAEVKKPGASVKVSCKASGYTFTSYYMHWVRQAPGQGLEWMGVINSSGGSTSYAQKFQGRVTMTRDTSTSTVYMDLSSLRSEDTAVYYCARGYCTNGVYYDEDFDYWGQGTLVTVSS
VL: DIQMTQSPSSLSASVGDRVTITCRASQGISHYLAWFQQKPGKAPTSLIYAASSLQSGVPSKFSGSGSGTDFTLTISSLQPEDFATYYCQQYNSYPLTFGGGTKVEIK
B7: B16-v2 (antibody, V domains shown)
VH: QVQLVQSGAEVKKPGASVKVSCKASGYTFTSYYMHWVRQAPGQGLEWMGIIDPSGGSTSYAQKFQGRVTMTRDTSTNTVYMDLSSLRSEDTAVYYCARQGRYVGSYLDYWGQGTLVTVSS
VL: DIQMTQSPSSLSASVGDRVTITCRASQGISNYLAWFQQKPGKAPKSVIYAASSLQSGVPSKFSGSGSGTDFTLTISSMQPEDFATYYCQQYNSYPYTFGQGTKLEIK
B8: J8 (antibody, V domains shown)
VH: QVHLVQSGAEVKKPGASVKVSCKASGYTFTIYYIHWVRQAPGQGLEWMGIINPSGGSTSYAQKFQGRVTMTRDTSTSTVYMELSSLRSEDTAVYYCSGNDYVDYVTTDYYGMDVWGQGTTVTVSS
VL: DIQMTQSPSSLSASVGDRVTITCRASQGISNYLAWFQQKPGKAPKSLIYAASSLQSGVPSKFSGSGSGTDFTLTISSLQPEDFATYYCQQYNSSPYTFGQGTKLEIK
B9: O24 (antibody, V domains shown)
VH: QVQLVQSGAEVKKPGASVKVSCKASGYTFTSYYLHWVRQAPGHGLEWMAIINPSGGSTSYAQKFLGRVTMTRDTSTNTVYMELSSLRSEDTAVYYCARERQQLDYYYFAMDVWGQGTTVTVSS
VL: DIQMTQSPSSLSASVGDRVTITCRASQGISNYLAWFQQKPGKAPKSLIYAASSLQSGVPSKFSGSGSGTDFTLTISSLQPEDFATYYCQQYNSYPPTFGQGTKVEIK
B10: E23 (antibody, V domains shown)
VH: QVQLVQSGAEVRKPGASVKVSCKASGYTFTGYYMHWVRQAPGQGLEWMGWINSYSGGANYAQKFQDRVTMTRDTSVSTASMELSRLRSDDTAVYYCARDGSGWYGSYFDFWGQGTLVTVSS
VL: DIVMTQTPLSSPVTLGQPASISCRSSQSLVHSDGNTYLSWLQQRPGQPPRLLIYKISNRFSGVPDRFSGSGAGTDFTLKISRVEAEDVGFYYCIQTTQFPLTFGGGTKVEIK

Chains of the proteins cited; added tags and fusions are not shown. Lines headed by an entry give the natural chain unless they say otherwise; changes in a name come on top.
UniProt Q9NYJ7: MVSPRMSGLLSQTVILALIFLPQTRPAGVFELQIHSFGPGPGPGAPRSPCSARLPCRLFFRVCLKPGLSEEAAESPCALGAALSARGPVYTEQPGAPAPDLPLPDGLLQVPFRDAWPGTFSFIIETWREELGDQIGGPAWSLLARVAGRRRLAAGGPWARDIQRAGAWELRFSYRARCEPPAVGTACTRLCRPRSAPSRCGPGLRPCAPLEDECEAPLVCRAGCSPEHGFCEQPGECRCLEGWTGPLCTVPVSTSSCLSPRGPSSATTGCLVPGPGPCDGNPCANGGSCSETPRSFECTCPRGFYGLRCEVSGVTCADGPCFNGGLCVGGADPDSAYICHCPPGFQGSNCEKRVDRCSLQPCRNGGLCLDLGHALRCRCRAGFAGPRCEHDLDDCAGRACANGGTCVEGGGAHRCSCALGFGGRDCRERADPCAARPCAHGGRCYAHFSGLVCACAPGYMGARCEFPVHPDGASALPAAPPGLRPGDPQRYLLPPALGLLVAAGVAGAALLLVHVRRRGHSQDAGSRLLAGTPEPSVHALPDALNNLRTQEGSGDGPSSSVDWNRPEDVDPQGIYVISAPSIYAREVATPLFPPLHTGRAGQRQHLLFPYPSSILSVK

Molecular target: Histidine-tagged DLL3 antigen (DLL3-His) (human) (UniProt Q9NYJ7)
Experiment: epitope binning, Carterra array SPR, capture of DLL3-His

binding, binds:
B1
B2
B3
B4
B5
B6
B7
B8
B9
B10

From patent US20240368269A1
